# Source: the supplement of paper PMC8728848
# The list shows a part of the results.
# Key:
# Assay in all cases: glycan array binding signal (z-score within array); higher = stronger binding
# Conditions in all cases: glycan notation: IUPAC condensed, linker removed
# [1] = target: Fuc(a1-2)[GalNAc(a1-3)]Gal(b1-3)GlcNAc(b1-3)GalNAc
# Summary of the method: (§1)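 The Consortium for Functional Glycomics database supplied 3228 glycan arrays, of which those lacking an available protein sequence were dropped. The binding signal, a within-array Z-score, was averaged across arrays of the same protein sequence and across linkers. Negative scores can be read as non-binding.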
# [2] = target: Fuc(a1-2)[GalNAc(a1-3)]Gal(b1-3)GlcNAc(b1-6)GalNAc
# Summary of the method: as §1
# [3] = target: Fuc(a1-2)[GalNAc(a1-3)]Gal(b1-4)Glc
# Summary of the method: as §1
# [4] = target: Fuc(a1-2)[GalNAc(a1-3)]Gal(b1-4)GlcNAc
# Summary of the method: as §1
# [5] = target: Fuc(a1-2)[GalNAc(a1-3)]Gal(b1-4)GlcNAc(b1-2)Man
# Summary of the method: as §1
# [6] = target: Fuc(a1-2)[GalNAc(a1-3)]Gal(b1-4)GlcNAc(b1-2)Man(a1-3)[Fuc(a1-2)[GalNAc(a1-3)]Gal(b1-4)GlcNAc(b1-2)Man(a1-6)]Man(b1-4)GlcNAc(b1-4)GlcNAc
# Summary of the method: as §1
# [7] = target: Fuc(a1-2)[GalNAc(a1-3)]Gal(b1-4)GlcNAc(b1-2)Man(a1-3)[Fuc(a1-2)[GalNAc(a1-3)]Gal(b1-4)GlcNAc(b1-2)Man(a1-6)]Man(b1-4)GlcNAc(b1-4)[Fuc(a1-6)]GlcNAc
# Summary of the method: as §1
# [8] = target: Fuc(a1-2)[GalNAc(a1-3)]Gal(b1-4)GlcNAc(b1-3)Gal(b1-4)GlcNAc
# Summary of the method: as §1
# [9] = target: Fuc(a1-2)[GalNAc(a1-3)]Gal(b1-4)GlcNAc(b1-3)Gal(b1-4)GlcNAc(b1-3)Gal(b1-4)GlcNAc
# Summary of the method: as §1
# [10] = target: Fuc(a1-2)[GalNAc(a1-3)]Gal(b1-4)GlcNAc(b1-3)GalNAc
# Summary of the method: as §1
# [11] = target: Fuc(a1-2)[GalNAc(a1-3)]Gal(b1-4)GlcNAc(b1-3)[Fuc(a1-2)[GalNAc(a1-3)]Gal(b1-4)GlcNAc(b1-6)]GalNAc
# Summary of the method: as §1
# [12] = target: Fuc(a1-2)[GalNAc(a1-3)]Gal(b1-4)GlcNAc(b1-6)GalNAc
# Summary of the method: as §1
# [13] = target: Fuc(a1-2)[GalNAc(a1-3)]Gal(b1-4)[Fuc(a1-3)]GlcNAc
# Summary of the method: as §1
# [14] = target: Fuc(a1-2)[GalNAc(a1-3)]Gal(b1-4)[Fuc(a1-3)]GlcNAc(b1-3)GalNAc
# Summary of the method: as §1
# [15] = target: Fuc(a1-2)[GalNAc(a1-4)]Gal(b1-4)GlcNAc
# Summary of the method: as §1
# [16] = target: Fuc(a1-2)[GalNAc(b1-3)]Gal
# Summary of the method: as §1
# Fuc(a1-3)GlcNAc = target: Fuc(a1-3)GlcNAc
# Summary of the method: as §1
# [17] = target: Fuc(a1-3)[Gal(b1-4)]Glc6S
# Summary of the method: as §1
# [18] = target: Fuc(a1-3)[Gal(b1-4)]GlcNAc
# Summary of the method: as §1
# [19] = target: Fuc(a1-3)[Gal(b1-4)]GlcNAc(b1-2)Man
# Summary of the method: as §1
# [20] = target: Fuc(a1-3)[Gal(b1-4)]GlcNAc(b1-2)Man(a1-3)[Fuc(a1-3)[Gal(b1-4)]GlcNAc(b1-2)Man(a1-6)]Man(b1-4)GlcNAc(b1-4)GlcNAc
# Summary of the method: as §1
# [21] = target: Fuc(a1-3)[Gal(b1-4)]GlcNAc(b1-2)Man(a1-3)[Fuc(a1-3)[Gal(b1-4)]GlcNAc(b1-2)Man(a1-6)]Man(b1-4)GlcNAc(b1-4)[Fuc(a1-6)]GlcNAc
# Summary of the method: as §1
# [22] = target: Fuc(a1-3)[Gal(b1-4)]GlcNAc(b1-3)Gal(b1-3)[Fuc(a1-4)]GlcNAc
# Summary of the method: as §1
# [23] = target: Fuc(a1-3)[Gal(b1-4)]GlcNAc(b1-3)Gal(b1-4)[Fuc(a1-3)]GlcNAc
# Summary of the method: as §1
# [24] = target: Fuc(a1-3)[Gal(b1-4)]GlcNAc(b1-3)Gal(b1-4)[Fuc(a1-3)]GlcNAc(b1-3)Gal(b1-4)[Fuc(a1-3)]GlcNAc
# Summary of the method: as §1
# [25] = target: Fuc(a1-3)[Gal(b1-4)]GlcNAc(b1-3)GalNAc
# Summary of the method: as §1
# [26] = target: Fuc(a1-3)[Gal(b1-4)]GlcNAc(b1-6)GalNAc
# Summary of the method: as §1
# [27] = target: Fuc(a1-3)[Gal(b1-4)]GlcNAc(b1-6)[Gal(b1-3)GlcNAc(b1-3)]Gal(b1-4)Glc
# Summary of the method: as §1
# [28] = target: Fuc(a1-3)[Gal(b1-4)]GlcNAc6S
# Summary of the method: as §1
# [29] = target: Fuc(a1-3)[Gal3S(b1-4)]Glc
# Summary of the method: as §1
# [30] = target: Fuc(a1-3)[Gal3S(b1-4)]GlcNAc
# Summary of the method: as §1
# [31] = target: Fuc(a1-3)[Gal3S(b1-4)]GlcNAc6S
# Summary of the method: as §1
# [32] = target: Fuc(a1-3)[GalNAc(b1-4)]GlcNAc
# Summary of the method: as §1
# [33] = target: Fuc(a1-3)[GalNAc(b1-4)]GlcNAc6S
# Summary of the method: as §1
# Fuc(a1-4)GlcNAc = target: Fuc(a1-4)GlcNAc
# Summary of the method: as §1
# Fuc(b1-3)GlcNAc = target: Fuc(b1-3)GlcNAc
# Summary of the method: as §1
# Gal(a1-2)Gal = target: Gal(a1-2)Gal
# Summary of the method: as §1
binder,measurement,setting,value
Epa11 (Candida glabrata) (protein) MGSSHHHHHHSSGLVPRGSHMASSNAPNYPVGCSPSVGTQLTPGLSLEVYAYPMDGNNGYCWNATYKDPEFPRSGYLKNKLLGKADGVVGPLNFLAKNKDCSPKVDTLPAGFNFPQPITVTNFTMVLFGYLAPKQSGKYTFKLLADDLLLLNLGATNAFDCCNREATKNNLGEFLAYNLWPNQDKNVTVYLEKGVYYPLRLFFNNRDGGSQLDFSYYFNDSPAPLTDFSGMFFSVPDGAECPARI,glycan array binding signal (z-score),[1],1.2
same,glycan array binding signal (z-score),[2],-0.276
same,glycan array binding signal (z-score),[3],-0.209
same,glycan array binding signal (z-score),[4],0.226
same,glycan array binding signal (z-score),[5],-0.682
same,glycan array binding signal (z-score),[6],0.366
same,glycan array binding signal (z-score),[7],0.141
same,glycan array binding signal (z-score),[8],-0.643
same,glycan array binding signal (z-score),[9],0.345
same,glycan array binding signal (z-score),[10],-0.691
same,glycan array binding signal (z-score),[11],-0.399
same,glycan array binding signal (z-score),[12],-0.327
same,glycan array binding signal (z-score),[13],-0.101
same,glycan array binding signal (z-score),[14],1.68
same,glycan array binding signal (z-score),[15],-0.317
same,glycan array binding signal (z-score),[16],-0.354
same,glycan array binding signal (z-score),Fuc(a1-3)GlcNAc,-0.649
same,glycan array binding signal (z-score),[17],-0.02
same,glycan array binding signal (z-score),[18],-0.057
same,glycan array binding signal (z-score),[19],-0.001
same,glycan array binding signal (z-score),[20],-0.21
same,glycan array binding signal (z-score),[21],0.653
same,glycan array binding signal (z-score),[22],-0.232
same,glycan array binding signal (z-score),[23],-0.242
same,glycan array binding signal (z-score),[24],-0.603
same,glycan array binding signal (z-score),[25],0.07
same,glycan array binding signal (z-score),[26],-0.246
same,glycan array binding signal (z-score),[27],-0.377
same,glycan array binding signal (z-score),[28],-0.152
same,glycan array binding signal (z-score),[29],-0.415
same,glycan array binding signal (z-score),[30],-0.608
same,glycan array binding signal (z-score),[31],0.262
same,glycan array binding signal (z-score),[32],0.354
same,glycan array binding signal (z-score),[33],-0.845
same,glycan array binding signal (z-score),Fuc(a1-4)GlcNAc,-0.209
same,glycan array binding signal (z-score),Fuc(b1-3)GlcNAc,-0.407
same,glycan array binding signal (z-score),Gal(a1-2)Gal,-0.375

# For convenience, some entries already given:
binder,measurement,setting,value
Epa11 (Candida glabrata) (protein) MGSSHHHHHHSSGLVPRGSHMASSNAPNYPVGCSPSVGTQLTPGLSLEVYAYPMDGNNGYCWNATYKDPEFPRSGYLKNKLLGKADGVVGPLNFLAKNKDCSPKVDTLPAGFNFPQPITVTNFTMVLFGYLAPKQSGKYTFKLLADDLLLLNLGATNAFDCCNREATKNNLGEFLAYNLWPNQDKNVTVYLEKGVYYPLRLFFNNRDGGSQLDFSYYFNDSPAPLTDFSGMFFSVPDGAECPARI,glycan array binding signal (z-score),[30],-0.608
same,glycan array binding signal (z-score),[31],0.262
same,glycan array binding signal (z-score),[32],0.354
same,glycan array binding signal (z-score),[33],-0.845
same,glycan array binding signal (z-score),Fuc(a1-4)GlcNAc,-0.209
same,glycan array binding signal (z-score),Fuc(b1-3)GlcNAc,-0.407
same,glycan array binding signal (z-score),Gal(a1-2)Gal,-0.375
